# Reference: paper PMC5433425 (PeerJ, 2017)
# The source gives many values for each of these; only a part stands here.
# System: E. coli AG100
# Assay: EtBr accumulation by real-time fluorometry
smiles,measurement,setting,value
"CC[n+]1c(-c2ccccc2)c2cc(N)ccc2c2ccc(N)cc21 [EtBr, ethidium bromide]",EtBr fluorescence,"EtBr 0.125 µg/ml, cycle 1",1.596
same,EtBr fluorescence,"EtBr 0.125 µg/ml, cycle 2",1.5028
same,EtBr fluorescence,"EtBr 0.125 µg/ml, cycle 3",1.588
same,EtBr fluorescence,"EtBr 0.125 µg/ml, cycle 4",1.592
same,EtBr fluorescence,"EtBr 0.125 µg/ml, cycle 5",1.597
same,EtBr fluorescence,"EtBr 0.125 µg/ml, cycle 6",1.63
same,EtBr fluorescence,"EtBr 0.125 µg/ml, cycle 7",1.663
same,EtBr fluorescence,"EtBr 0.125 µg/ml, cycle 8",1.624
same,EtBr fluorescence,"EtBr 0.125 µg/ml, cycle 9",1.729
same,EtBr fluorescence,"EtBr 0.125 µg/ml, cycle 10",1.694
same,EtBr fluorescence,"EtBr 0.125 µg/ml, cycle 11",1.673
same,EtBr fluorescence,"EtBr 0.125 µg/ml, cycle 12",1.714
same,EtBr fluorescence,"EtBr 0.125 µg/ml, cycle 13",1.753
same,EtBr fluorescence,"EtBr 0.125 µg/ml, cycle 14",1.743
same,EtBr fluorescence,"EtBr 0.125 µg/ml, cycle 15",1.752
same,EtBr fluorescence,"EtBr 0.125 µg/ml, cycle 16",1.792
same,EtBr fluorescence,"EtBr 0.125 µg/ml, cycle 17",1.836
same,EtBr fluorescence,"EtBr 0.125 µg/ml, cycle 18",1.815
same,EtBr fluorescence,"EtBr 0.125 µg/ml, cycle 19",1.776
same,EtBr fluorescence,"EtBr 0.125 µg/ml, cycle 20",1.819
same,EtBr fluorescence,"EtBr 0.125 µg/ml, cycle 21",1.854
same,EtBr fluorescence,"EtBr 0.125 µg/ml, cycle 22",1.831
same,EtBr fluorescence,"EtBr 0.125 µg/ml, cycle 23",1.848
same,EtBr fluorescence,"EtBr 0.125 µg/ml, cycle 24",1.851
same,EtBr fluorescence,"EtBr 0.125 µg/ml, cycle 25",1.842
same,EtBr fluorescence,"EtBr 0.125 µg/ml, cycle 26",1.887
same,EtBr fluorescence,"EtBr 0.125 µg/ml, cycle 27",1.836
same,EtBr fluorescence,"EtBr 0.125 µg/ml, cycle 28",1.871
same,EtBr fluorescence,"EtBr 0.125 µg/ml, cycle 29",1.872
same,EtBr fluorescence,"EtBr 0.125 µg/ml, cycle 30",1.881
same,EtBr fluorescence,"EtBr 3 µg/ml, cycle 1",12.6101
same,EtBr fluorescence,"EtBr 3 µg/ml, cycle 2",13.0793
same,EtBr fluorescence,"EtBr 3 µg/ml, cycle 3",13.6179
same,EtBr fluorescence,"EtBr 3 µg/ml, cycle 4",14.2557
same,EtBr fluorescence,"EtBr 3 µg/ml, cycle 5",14.5518
same,EtBr fluorescence,"EtBr 3 µg/ml, cycle 6",15.1909
same,EtBr fluorescence,"EtBr 3 µg/ml, cycle 7",15.8375
same,EtBr fluorescence,"EtBr 3 µg/ml, cycle 8",16.2305
same,EtBr fluorescence,"EtBr 3 µg/ml, cycle 9",16.4498
same,EtBr fluorescence,"EtBr 3 µg/ml, cycle 10",17.2387
same,EtBr fluorescence,"EtBr 3 µg/ml, cycle 11",17.7887
same,EtBr fluorescence,"EtBr 3 µg/ml, cycle 12",18.2573
same,EtBr fluorescence,"EtBr 3 µg/ml, cycle 13",18.6703
same,EtBr fluorescence,"EtBr 3 µg/ml, cycle 14",19.2327
same,EtBr fluorescence,"EtBr 3 µg/ml, cycle 15",19.3909
same,EtBr fluorescence,"EtBr 3 µg/ml, cycle 16",19.6195
same,EtBr fluorescence,"EtBr 3 µg/ml, cycle 17",20.0684
same,EtBr fluorescence,"EtBr 3 µg/ml, cycle 18",20.5143
same,EtBr fluorescence,"EtBr 3 µg/ml, cycle 19",20.5974
same,EtBr fluorescence,"EtBr 3 µg/ml, cycle 20",21.168
same,EtBr fluorescence,"EtBr 3 µg/ml, cycle 21",21.4601
same,EtBr fluorescence,"EtBr 3 µg/ml, cycle 22",21.5036
same,EtBr fluorescence,"EtBr 3 µg/ml, cycle 23",21.9456
same,EtBr fluorescence,"EtBr 3 µg/ml, cycle 24",22.1454
same,EtBr fluorescence,"EtBr 3 µg/ml, cycle 25",22.6033
same,EtBr fluorescence,"EtBr 3 µg/ml, cycle 26",22.8264
same,EtBr fluorescence,"EtBr 3 µg/ml, cycle 27",23.1827
same,EtBr fluorescence,"EtBr 3 µg/ml, cycle 28",23.3717
same,EtBr fluorescence,"EtBr 3 µg/ml, cycle 29",23.5013
same,EtBr fluorescence,"EtBr 3 µg/ml, cycle 30",23.4632
same,EtBr fluorescence,"EtBr 4 µg/ml, cycle 1",17.1477
same,EtBr fluorescence,"EtBr 4 µg/ml, cycle 2",17.8876
same,EtBr fluorescence,"EtBr 4 µg/ml, cycle 3",18.6599
same,EtBr fluorescence,"EtBr 4 µg/ml, cycle 4",19.5698
same,EtBr fluorescence,"EtBr 4 µg/ml, cycle 5",20.1045
same,EtBr fluorescence,"EtBr 4 µg/ml, cycle 6",21.3024
same,EtBr fluorescence,"EtBr 4 µg/ml, cycle 7",22.1491
same,EtBr fluorescence,"EtBr 4 µg/ml, cycle 8",23.0927
same,EtBr fluorescence,"EtBr 4 µg/ml, cycle 9",23.7587
same,EtBr fluorescence,"EtBr 4 µg/ml, cycle 10",24.5437
same,EtBr fluorescence,"EtBr 4 µg/ml, cycle 18",29.2197
same,EtBr fluorescence,"EtBr 4 µg/ml, cycle 19",29.4745
same,EtBr fluorescence,"EtBr 4 µg/ml, cycle 20",30.2731
same,EtBr fluorescence,"EtBr 4 µg/ml, cycle 21",30.3914
same,EtBr fluorescence,"EtBr 4 µg/ml, cycle 22",30.608
same,EtBr fluorescence,"EtBr 4 µg/ml, cycle 23",30.9119
same,EtBr fluorescence,"EtBr 4 µg/ml, cycle 24",31.2605
same,EtBr fluorescence,"EtBr 4 µg/ml, cycle 25",31.8732
same,EtBr fluorescence,"EtBr 4 µg/ml, cycle 26",32.0024
same,EtBr fluorescence,"EtBr 4 µg/ml, cycle 27",32.0831
same,EtBr fluorescence,"EtBr 4 µg/ml, cycle 28",32.8308
same,EtBr fluorescence,"EtBr 4 µg/ml, cycle 29",33.0276
same,EtBr fluorescence,"EtBr 4 µg/ml, cycle 30",33.2165
same,EtBr fluorescence,"EtBr 5 µg/ml, cycle 1",23.5626
same,EtBr fluorescence,"EtBr 5 µg/ml, cycle 2",24.6717
same,EtBr fluorescence,"EtBr 5 µg/ml, cycle 7",30.0656
same,EtBr fluorescence,"EtBr 5 µg/ml, cycle 8",31.1584
same,EtBr fluorescence,"EtBr 5 µg/ml, cycle 9",32.0155
same,EtBr fluorescence,"EtBr 5 µg/ml, cycle 10",33.0472
same,EtBr fluorescence,"EtBr 5 µg/ml, cycle 11",33.9366
same,EtBr fluorescence,"EtBr 5 µg/ml, cycle 12",34.8181
same,EtBr fluorescence,"EtBr 5 µg/ml, cycle 13",35.3605
same,EtBr fluorescence,"EtBr 5 µg/ml, cycle 14",36.3128
same,EtBr fluorescence,"EtBr 5 µg/ml, cycle 15",36.6225
same,EtBr fluorescence,"EtBr 5 µg/ml, cycle 16",37.2802
same,EtBr fluorescence,"EtBr 5 µg/ml, cycle 17",38.096
same,EtBr fluorescence,"EtBr 5 µg/ml, cycle 18",38.4456
same,EtBr fluorescence,"EtBr 5 µg/ml, cycle 19",39.2156
same,EtBr fluorescence,"EtBr 5 µg/ml, cycle 20",39.6677
same,EtBr fluorescence,"EtBr 5 µg/ml, cycle 21",40.134
same,EtBr fluorescence,"EtBr 5 µg/ml, cycle 22",40.5214
same,EtBr fluorescence,"EtBr 5 µg/ml, cycle 23",41.3819
same,EtBr fluorescence,"EtBr 5 µg/ml, cycle 24",41.5393
same,EtBr fluorescence,"EtBr 5 µg/ml, cycle 25",42.4562
same,EtBr fluorescence,"EtBr 5 µg/ml, cycle 26",42.4714
same,EtBr fluorescence,"EtBr 5 µg/ml, cycle 27",42.6647
same,EtBr fluorescence,"EtBr 5 µg/ml, cycle 28",43.2439
same,EtBr fluorescence,"EtBr 5 µg/ml, cycle 29",42.9365
same,EtBr fluorescence,"EtBr 5 µg/ml, cycle 30",43.6808
